From PMC8692896
These are yes or no findings as the source states them, for the method shown. Binding seen in cells or lysates may run through a third protein. Here binding means that the protein was enriched with, or labelled near, the bait; the list need not be complete. Sequences can lack the tags named with a protein.

Molecular target: T1, Flag-tagged human CPT1a (carnitine palmitoyl transferase 1a) (human) (UniProt P50416)
T1 sequence: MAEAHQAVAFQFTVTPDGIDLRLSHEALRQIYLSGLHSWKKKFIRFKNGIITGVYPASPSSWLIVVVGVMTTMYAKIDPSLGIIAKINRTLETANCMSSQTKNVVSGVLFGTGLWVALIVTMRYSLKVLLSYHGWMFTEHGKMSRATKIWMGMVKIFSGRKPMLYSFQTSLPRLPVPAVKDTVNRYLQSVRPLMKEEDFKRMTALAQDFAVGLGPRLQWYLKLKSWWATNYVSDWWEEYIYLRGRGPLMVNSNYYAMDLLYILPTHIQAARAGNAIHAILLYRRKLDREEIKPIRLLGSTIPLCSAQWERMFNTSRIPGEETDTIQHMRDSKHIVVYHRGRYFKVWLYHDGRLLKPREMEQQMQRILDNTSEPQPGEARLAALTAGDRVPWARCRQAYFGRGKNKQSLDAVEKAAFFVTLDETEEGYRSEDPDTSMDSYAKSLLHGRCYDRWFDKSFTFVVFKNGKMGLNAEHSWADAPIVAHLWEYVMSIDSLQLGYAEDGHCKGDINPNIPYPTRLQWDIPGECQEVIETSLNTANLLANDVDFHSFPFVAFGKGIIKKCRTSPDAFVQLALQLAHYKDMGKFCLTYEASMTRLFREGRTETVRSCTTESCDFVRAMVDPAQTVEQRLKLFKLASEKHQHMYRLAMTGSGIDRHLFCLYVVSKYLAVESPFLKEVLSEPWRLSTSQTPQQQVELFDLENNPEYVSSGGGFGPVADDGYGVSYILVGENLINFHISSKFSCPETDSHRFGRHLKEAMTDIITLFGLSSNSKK
Assay: affinity purification with mass spectrometry; CPT1a-flag complexes purified on anti-flag M2 magnetic beads from 293T cells overexpressing CPT1a-flag or empty vector; SDS-PAGE, gel digestion, LC-MS/MS; also analysed by Western blot

binding: binds
B1: ubiquitin-specific peptidase 50 (USP50), endogenous in 293T cells (enzyme, UniProt Q70EL3 1-339)
chain: MTSQPSLPADDFDIYHVLAECTDYYDTLPVKEADGNQPHFQGVTGLWNLGNTCCVNAISQCLCSILPLVEYFLTGKYITALQKFLLPSDCSEVATAFAYLMTDMWLGDSDCVSPEIFWSALGNLYPAFTKKMQQDAQEFLICVLNELHEALKKYHYSRRRSYEKGSTQRCCRKWITTETSIITQLFEEQLNYSIVCLKCEKCTYKNEVFTVFSLPIPSKYECSLRDCLQCFFQQDALTWNNEIHCSFCETKQETAVRASISKAPKIIIFHLKRFDIQGTTKRKLRTDIHYPLTNLDLTPYICSIFRKYPKYNLCAVVNHFGDLDGGHYTAFCKNSVTQA
